Test results taken from paper doi:10.1101/2025.09.08.674928.

Molecular target: SARS-CoV-2 Nsp3 (from virus infection) (SARS-CoV-2) (UniProt P0DTD1)
Test: affinity purification with mass spectrometry

## enolase 1 (ENO1) (from UniProt P06733 1-434) (enzyme)
  binding: binds

## glyceraldehyde-3-phosphate dehydrogenase (GAPDH) (from UniProt P04406 1-335) (enzyme)
  binding: binds

These are yes or no findings as the source states them, for the method shown. Binding seen in cells or lysates may run through a third protein. Here binding means that the protein was enriched with, or labelled near, the bait; the list need not be complete.
